From paper PMC11040000
Results are given in words; binding and its absence hold for the method and conditions named. Binding seen in cells or lysates may run through a third protein. Some binding calls cover weakened binding; strength is not graded here.

By UniProt entry, the sequences of proteins in these tests, tags left out.
UniProt Q02248: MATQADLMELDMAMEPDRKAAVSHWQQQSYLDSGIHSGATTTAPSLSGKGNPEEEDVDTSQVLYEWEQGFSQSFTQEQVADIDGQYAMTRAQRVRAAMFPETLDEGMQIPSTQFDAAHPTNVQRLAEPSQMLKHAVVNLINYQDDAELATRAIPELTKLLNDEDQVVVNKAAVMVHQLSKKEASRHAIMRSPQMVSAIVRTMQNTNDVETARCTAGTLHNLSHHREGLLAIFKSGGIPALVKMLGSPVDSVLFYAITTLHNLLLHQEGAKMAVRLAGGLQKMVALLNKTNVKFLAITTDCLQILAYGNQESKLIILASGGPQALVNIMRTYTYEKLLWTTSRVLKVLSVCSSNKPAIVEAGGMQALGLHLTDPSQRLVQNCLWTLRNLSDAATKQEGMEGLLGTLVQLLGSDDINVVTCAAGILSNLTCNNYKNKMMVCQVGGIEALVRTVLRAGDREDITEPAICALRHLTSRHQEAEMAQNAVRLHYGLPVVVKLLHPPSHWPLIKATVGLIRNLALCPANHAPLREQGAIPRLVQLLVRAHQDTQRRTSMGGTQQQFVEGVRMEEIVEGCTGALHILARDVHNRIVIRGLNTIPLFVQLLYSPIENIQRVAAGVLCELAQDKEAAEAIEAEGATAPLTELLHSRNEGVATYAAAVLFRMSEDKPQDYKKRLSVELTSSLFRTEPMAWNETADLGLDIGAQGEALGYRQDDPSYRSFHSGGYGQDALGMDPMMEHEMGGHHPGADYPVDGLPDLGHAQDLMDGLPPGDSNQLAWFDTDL

Molecular target: T1, BCL9 (mouse (endogenous in primary MuSCs)) (UniProt Q9D219)
T1 sequence: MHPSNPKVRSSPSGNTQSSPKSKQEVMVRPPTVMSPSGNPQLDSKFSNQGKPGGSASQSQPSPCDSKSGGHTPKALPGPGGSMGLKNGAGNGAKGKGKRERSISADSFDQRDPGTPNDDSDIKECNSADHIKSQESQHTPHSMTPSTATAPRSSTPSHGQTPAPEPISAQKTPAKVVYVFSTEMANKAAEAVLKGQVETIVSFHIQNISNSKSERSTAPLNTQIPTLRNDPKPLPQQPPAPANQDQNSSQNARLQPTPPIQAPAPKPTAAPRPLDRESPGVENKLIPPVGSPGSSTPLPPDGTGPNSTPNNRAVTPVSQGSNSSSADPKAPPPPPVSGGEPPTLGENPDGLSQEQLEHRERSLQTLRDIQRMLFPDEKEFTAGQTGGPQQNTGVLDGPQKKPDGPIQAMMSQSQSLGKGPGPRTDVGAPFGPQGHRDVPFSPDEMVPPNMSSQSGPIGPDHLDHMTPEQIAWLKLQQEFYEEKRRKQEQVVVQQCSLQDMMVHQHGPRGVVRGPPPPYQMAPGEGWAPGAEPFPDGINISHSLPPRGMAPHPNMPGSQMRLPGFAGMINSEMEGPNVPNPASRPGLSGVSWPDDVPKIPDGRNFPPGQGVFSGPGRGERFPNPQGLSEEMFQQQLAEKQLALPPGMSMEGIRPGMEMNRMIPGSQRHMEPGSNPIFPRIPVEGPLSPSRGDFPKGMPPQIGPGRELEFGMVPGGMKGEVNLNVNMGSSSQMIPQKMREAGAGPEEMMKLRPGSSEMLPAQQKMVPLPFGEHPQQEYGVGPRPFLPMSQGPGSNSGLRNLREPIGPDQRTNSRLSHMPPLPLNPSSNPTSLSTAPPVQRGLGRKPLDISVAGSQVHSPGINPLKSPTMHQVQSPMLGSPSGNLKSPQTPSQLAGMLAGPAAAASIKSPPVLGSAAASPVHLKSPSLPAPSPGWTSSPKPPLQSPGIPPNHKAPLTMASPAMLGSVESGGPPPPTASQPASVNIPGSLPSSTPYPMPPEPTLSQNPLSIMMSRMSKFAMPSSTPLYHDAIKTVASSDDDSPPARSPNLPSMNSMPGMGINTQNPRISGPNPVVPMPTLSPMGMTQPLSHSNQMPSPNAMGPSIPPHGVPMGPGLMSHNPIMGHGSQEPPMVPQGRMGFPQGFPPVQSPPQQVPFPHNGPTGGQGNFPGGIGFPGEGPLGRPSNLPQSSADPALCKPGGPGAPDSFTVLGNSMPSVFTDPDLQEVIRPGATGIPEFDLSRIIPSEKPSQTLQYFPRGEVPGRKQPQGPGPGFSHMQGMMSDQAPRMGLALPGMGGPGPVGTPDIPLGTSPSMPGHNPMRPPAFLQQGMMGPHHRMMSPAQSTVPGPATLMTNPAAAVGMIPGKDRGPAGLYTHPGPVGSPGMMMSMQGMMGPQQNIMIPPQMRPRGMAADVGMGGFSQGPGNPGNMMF
Assay: proximity ligation; Duolink in situ PLA with mouse anti-β-catenin and rabbit anti-BCL9 on CTRL SC and LSD1 SCiKO MuSCs treated with Wnt3a (50 ng/ml, 6 h), cytoplasm removed; dots counted in nuclei

- binding: binds
Substance: β-catenin (endogenous) (from UniProt Q02248 1-781)
